{"source": "PubChem BioAssay AID1259291 (Sanger Institute, 2017)", "aim": "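Genes needed for HT29 colorectal cancer cell survival or for sensitivity to drugs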 (primary screen)", "cell system": "HT29 human colorectal cancer cells", "knock-down reagent": "siRNA pool against human genes", "challenge": "anchor drugs added a day after transfection: BYL719 at 1 µM, cetuximab at 5 µg/ml or trametinib at 10 nM, or DMSO vehicle alone", "measurement": "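Replicate-averaged viability relative to non-targeting pool, robust z-score based on control wells, plus per-drug synergy score for 1 µM BYL719, 5 µg/ml cetuximab and 10 nM trametinib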", "direction": "robust z-score, knock-down alone and viability, knock-down alone: higher = more viable cells", "active means": "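a knock-down alone scoring under -3 on robust z-score is called essential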", "meaning of the calls": "active = essential (knock-down alone); inactive = no change alone", "note": "The whole screen tested 794 reagents; this is a part drawn at random. In the full data, 15 (1.9%) are marked active. 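Calls rest on knock-down alone; drug synergy scores do not affect them; drugs added a day post-transfection, DMSO vehicle as comparison.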 A number with no mark means an inactive call. No viability above 1 is reported: the scale is capped. Further read-outs or replicates are left out here. Not given: the amount of reagent, the time to read-out."}
{"Target gene": "PAK3", "robust z-score, knock-down alone": 0.552, "viability, knock-down alone (fraction of control)": 1}
{"Target gene": "ITPKA", "robust z-score, knock-down alone": 0.552, "viability, knock-down alone (fraction of control)": 1}
{"Target gene": "DLG3", "robust z-score, knock-down alone": 0.552, "viability, knock-down alone (fraction of control)": 1}
{"Target gene": "MAPK8", "robust z-score, knock-down alone": -1.17, "viability, knock-down alone (fraction of control)": 0.893}
{"Target gene": "BRD4", "robust z-score, knock-down alone": 0.552, "viability, knock-down alone (fraction of control)": 1}
{"Target gene": "PFKFB1", "robust z-score, knock-down alone": 0.552, "viability, knock-down alone (fraction of control)": 1}
{"Target gene": "STRADA", "robust z-score, knock-down alone": 0.552, "viability, knock-down alone (fraction of control)": 1}
{"Target gene": "SHPK", "robust z-score, knock-down alone": 0.0251, "viability, knock-down alone (fraction of control)": 0.967}
{"Target gene": "PRKACA", "robust z-score, knock-down alone": 0.552, "viability, knock-down alone (fraction of control)": 1}
{"Target gene": "TWF2", "robust z-score, knock-down alone": 0.552, "viability, knock-down alone (fraction of control)": 1}
{"Target gene": "PTPN11", "robust z-score, knock-down alone": 0.552, "viability, knock-down alone (fraction of control)": 1}
{"Target gene": "BRWD1", "robust z-score, knock-down alone": -0.32, "viability, knock-down alone (fraction of control)": 0.946}
{"Target gene": "TESK1", "robust z-score, knock-down alone": 0.552, "viability, knock-down alone (fraction of control)": 1}
{"Target gene": "SRPK1", "robust z-score, knock-down alone": 0.552, "viability, knock-down alone (fraction of control)": 1}
{"Target gene": "AGK", "robust z-score, knock-down alone": 0.552, "viability, knock-down alone (fraction of control)": 1}
{"Target gene": "CSF1R", "robust z-score, knock-down alone": 0.552, "viability, knock-down alone (fraction of control)": 1}
{"Target gene": "CIB2", "robust z-score, knock-down alone": 0.552, "viability, knock-down alone (fraction of control)": 1}
{"Target gene": "STK17B", "robust z-score, knock-down alone": 0.552, "viability, knock-down alone (fraction of control)": 1}
{"Target gene": "RIOK3", "robust z-score, knock-down alone": 0.552, "viability, knock-down alone (fraction of control)": 1}
{"Target gene": "CSNK1A1", "robust z-score, knock-down alone": 0.552, "viability, knock-down alone (fraction of control)": 1}
{"Target gene": "TP53RK", "robust z-score, knock-down alone": -2.19, "viability, knock-down alone (fraction of control)": 0.83}
{"Target gene": "CSK", "robust z-score, knock-down alone": 0.248, "viability, knock-down alone (fraction of control)": 0.981}
{"Target gene": "TRIO", "robust z-score, knock-down alone": -0.426, "viability, knock-down alone (fraction of control)": 0.939}
{"Target gene": "DYRK1A", "robust z-score, knock-down alone": 0.552, "viability, knock-down alone (fraction of control)": 1}
{"Target gene": "POMK", "robust z-score, knock-down alone": -0.452, "viability, knock-down alone (fraction of control)": 0.938}
{"Target gene": "TLK2", "robust z-score, knock-down alone": -0.0051, "viability, knock-down alone (fraction of control)": 0.965}
{"Target gene": "PKLR", "robust z-score, knock-down alone": -1.01, "viability, knock-down alone (fraction of control)": 0.903}
{"Target gene": "FES", "robust z-score, knock-down alone": -1.42, "viability, knock-down alone (fraction of control)": 0.878}
{"Target gene": "PDXK", "robust z-score, knock-down alone": -2.46, "viability, knock-down alone (fraction of control)": 0.813}
{"Target gene": "IRAK2", "robust z-score, knock-down alone": 0.552, "viability, knock-down alone (fraction of control)": 1}
{"Target gene": "RPS6KC1", "robust z-score, knock-down alone": 0.552, "viability, knock-down alone (fraction of control)": 1}
{"Target gene": "CDKL2", "robust z-score, knock-down alone": 0.552, "viability, knock-down alone (fraction of control)": 1}
{"Target gene": "SF3B1", "robust z-score, knock-down alone": "-3.45 (active)", "viability, knock-down alone (fraction of control)": 0.752}
{"Target gene": "STK32B", "robust z-score, knock-down alone": 0.44, "viability, knock-down alone (fraction of control)": 0.993}
{"Target gene": "MAP4K1", "robust z-score, knock-down alone": 0.552, "viability, knock-down alone (fraction of control)": 1}
{"Target gene": "DCLK1", "robust z-score, knock-down alone": -2.67, "viability, knock-down alone (fraction of control)": 0.8}

Part of the list above, set out differently:
AGK
- robust z-score, knock-down alone: 0.552
- viability, knock-down alone (fraction of control): 1

CSF1R
- robust z-score, knock-down alone: 0.552
- viability, knock-down alone (fraction of control): 1

CIB2
- robust z-score, knock-down alone: 0.552
- viability, knock-down alone (fraction of control): 1

STK17B
- robust z-score, knock-down alone: 0.552
- viability, knock-down alone (fraction of control): 1

RIOK3
- robust z-score, knock-down alone: 0.552
- viability, knock-down alone (fraction of control): 1
